Results as given in paper doi:10.1101/754457.
No constants are given. Whether binding was seen depends on the method and setting. In cells and extracts the contact can be indirect. Binding can be weak; no strength is given. Sequences can lack the tags named with a protein.

Amino acid sequences for entries named in this document (tags omitted). A change or cut given only in a name is not applied to a line headed by its entry.
UniProt Q9USP7: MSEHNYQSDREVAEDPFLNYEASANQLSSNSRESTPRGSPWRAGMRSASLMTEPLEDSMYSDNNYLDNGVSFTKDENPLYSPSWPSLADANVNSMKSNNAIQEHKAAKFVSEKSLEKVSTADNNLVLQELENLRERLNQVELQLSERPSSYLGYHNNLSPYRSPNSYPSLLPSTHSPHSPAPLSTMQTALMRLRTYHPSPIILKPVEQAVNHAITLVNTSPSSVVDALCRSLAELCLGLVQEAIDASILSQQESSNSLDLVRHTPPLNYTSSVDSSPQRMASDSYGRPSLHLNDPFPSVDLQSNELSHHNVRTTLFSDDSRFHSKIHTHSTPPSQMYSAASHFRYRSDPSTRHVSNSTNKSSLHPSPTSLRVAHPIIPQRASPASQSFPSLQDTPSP

Molecular target: T1, Mto1[bonsai]-GFP (S. pombe) (UniProt O94488)
T1 sequence: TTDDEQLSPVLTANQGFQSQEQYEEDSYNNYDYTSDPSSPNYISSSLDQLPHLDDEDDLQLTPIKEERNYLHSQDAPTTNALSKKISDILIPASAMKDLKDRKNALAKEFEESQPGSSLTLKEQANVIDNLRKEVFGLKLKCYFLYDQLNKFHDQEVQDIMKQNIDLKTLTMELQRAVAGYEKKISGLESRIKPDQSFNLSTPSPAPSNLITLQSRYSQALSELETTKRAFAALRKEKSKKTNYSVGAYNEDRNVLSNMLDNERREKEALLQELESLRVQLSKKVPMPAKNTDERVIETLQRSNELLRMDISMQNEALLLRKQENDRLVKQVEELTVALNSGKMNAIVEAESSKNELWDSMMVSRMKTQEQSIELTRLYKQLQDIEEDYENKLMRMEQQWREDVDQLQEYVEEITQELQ
Experiment: co-IP

Q: How did the binding turn out when “Mto2-112AA116AA (in S. pombe) (from UniProt Q9USP7)” was run?
A: binds

Q: With “Mto2-129AAA134AAA (in S. pombe) (from UniProt Q9USP7)” as the substance, how does the binding read?
A: binds weakly

Q: How did the binding turn out when “Mto2-226A230A234A (in S. pombe) (from UniProt Q9USP7)” was run?
A: no binding
